Here are results for one molecule from patent US20160039943A1 (TRANSLATIONAL SCIENCES, published 2016).

By UniProt entry, the sequences of proteins in these tests, tags left out. Residues count along the entry.
UniProt P00747, residues 562-810: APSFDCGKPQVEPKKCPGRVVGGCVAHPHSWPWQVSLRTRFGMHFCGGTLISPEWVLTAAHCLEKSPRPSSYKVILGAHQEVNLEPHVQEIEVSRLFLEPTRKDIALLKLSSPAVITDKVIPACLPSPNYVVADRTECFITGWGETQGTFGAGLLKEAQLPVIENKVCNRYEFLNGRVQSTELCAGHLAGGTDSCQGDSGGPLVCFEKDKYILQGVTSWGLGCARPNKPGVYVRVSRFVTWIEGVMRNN

No constants are given. Whether binding was seen depends on the method and setting. Some binding calls cover weakened binding; strength is not graded here.

The target in this test is micro-plasmin (human) (UniProt P00747). As to the kind of experiment: SDS-PAGE and immunoblot under reducing conditions. On the technique in general: A western blot detects proteins with antibodies after separation by electrophoresis.

B1: native human α2-antiplasmin (other, UniProt P08697 40-491, looked up)
chain: NQEQVSPLTLLKLGNQEPGGQTALKSPPGVCSRDPTPEQTHRLARAMMAFTADLFSLVAQTSTCPNLILSPLSVALALSHLALGAQNHTLQRLQQVLHAGSGPCLPHLLSRLCQDLGPGAFRLAARMYLQKGFPIKEDFLEQSEQLFGAKPVSLTGKQEDDLANINQWVKEATEGKIQEFLSGLPEDTVLLLLNAIHFQGFWRNKFDPSLTQRDSFHLDEQFTVPVEMMQARTYPLRWFLLEQPEIQVAHFPFKNNMSFVVLVPTHFEWNVSQVLANLSWDTLHPPLVWERPTKVRLPKLYLKHQMDLVATLSQLGLQELFQAPDLRGISEQSLVVSGVQHQSTLELSEVGVEAAAATSIAMSRMSLSSFSVNRPFLFFIFEDTTGLPLFVGSVRNPNPSAPRELKEQQDSPGNKDFLQSLKGFPRGDKLFGPDLKLVPPMEEDYPQFGSPK
modifications: radioiodinated (125I) in the binding assays
notes: mature; Bought native protein; also called native human α2-AP; native α2-AP
For the molecule B1, the binding entry is given as “binds”.
